# According to patent US20210220419A1, “Herbal Nutraceutical Formulation to Reduce Oxidative Stress, Viral and Microbial Infections, and Inflammation” (priority 2017, published 2021):
# System: Low Density Lipoproteins, Human Plasma
# Assay: LDL oxidation in a cell-free system, Cu2+ induced (Experiment 10)
# Format: biochemical
# Conditions: reference compounds, FIG. 6B
smiles,measurement,value
CC(C)c1c(C(=O)Nc2ccccc2)c(-c2ccccc2)c(-c2ccc(F)cc2)n1CC[C@@H](O)C[C@@H](O)CC(=O)O [Atorvastatin],"Inhibition of LDL oxidation, in words",significant inhibition
